The source of these data is the supplement of paper PMC10735217.

This assay has as its system HEK293A TEAD-LUC reporter. Nature of the assay: TEAD-luciferase reporter activity (YAP activation), robust Z score vs plate; higher = stronger YAP/TEAD activation. The note with it: 24 h. On the technique in general: A reporter such as luciferase makes a cellular process visible.

The list shows a part of the results. Repeats in this data set agree poorly, so a single value says little.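 The human kidney-derived cells carry a stably integrated construct of eight TEAD-binding elements driving luciferase, read by luminescence in a drug-repurposing library screen. A compound counts as a hit when its signal is more than five robust Z scores above the plate mean.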

As to `O=C1c2ccccc2C(=O)C1(CN1CCOCC1)c1ccccc1`, the TEAD-luciferase reporter activity reads like this: (compound concentration: 200 nM) inactive: -1.39; (compound concentration: 2 uM) inactive: -0.881; (compound concentration: 10 uM) inactive: -0.0628.
The corresponding values for `COc1nsc(NC(=O)N2C[C@H]3C[C@H](N(C)c4ncnc5[nH]ccc45)C[C@H]3C2)n1` are inactive: -1.72, inactive: -0.772 and inactive: -0.0372.
As to `Cc1cnc(CNC(=O)c2c(=O)c3ccc(N4CCCN(C)CC4)nc3n3c2sc2ccccc23)cn1`, the TEAD-luciferase reporter activity by setting is: (compound concentration: 2 uM) inactive: -0.633; (compound concentration: 10 uM) inactive: 1.07.
With `Cn1cc(-c2cccc3cc(C(=O)NC(=N)N)ccc23)cn1`, the TEAD-luciferase reporter activity runs as follows: (compound concentration: 200 nM) inactive: 3.54; (compound concentration: 2 uM) inactive: 1.05; (compound concentration: 10 uM) inactive: 1.62.
The corresponding values for `Cc1ncc([N+](=O)[O-])n1CCCN1CCN(C)CC1` are inactive: 1.25, inactive: -1.14 and inactive: -1.61.
For the compound `CCCCCCCCCCCCCCCCCCCCCCCCCC(=O)O`, the TEAD-luciferase reporter activity (compound concentration: 200 nM) is inactive: -1.16, the TEAD-luciferase reporter activity (compound concentration: 2 uM) is inactive: 0.697 and the TEAD-luciferase reporter activity (compound concentration: 10 uM) is inactive: -0.0531.
`CSCC1CN(/N=C/c2ccc([N+](=O)[O-])o2)C(=O)O1` (stereo unspecified) [Nifuratel]: the TEAD-luciferase reporter activity was inactive: 1.84 (compound concentration: 200 nM), inactive: -1.49 (compound concentration: 2 uM) and inactive: 1.84 (compound concentration: 10 uM).
On to `Cc1noc(-c2ccc(CSCCC(=O)O)cc2)c1NC(=O)OC(C)c1ccccc1Cl` (stereo unspecified), for which the TEAD-luciferase reporter activity is inactive: -1.07 (compound concentration: 200 nM), inactive: -1.37 (compound concentration: 2 uM) and inactive: -2.07 (compound concentration: 10 uM).
On the same counts, the results for `C[C@@H](O)[C@H]1C(=O)N2C(C(=O)O)=C([C@@H]3CCCO3)S[C@H]12` [Faropenem sodium] are inactive: -0.606, inactive: -0.615 and inactive: 0.873.
Regarding `CO/N=C(\C(=O)N[C@@H]1C(=O)N2C(C(=O)OCOC(=O)C(C)(C)C)=C(/C=C\c3scnc3C)CS[C@H]12)c1csc(N)n1` [Cefditoren Pivoxil], the TEAD-luciferase reporter activity by setting is: (compound concentration: 200 nM) inactive: -1.05; (compound concentration: 10 uM) inactive: -2.2.
In the case of `CO/N=C(\C(=O)N[C@@H]1C(=O)N2C(C(=O)OCOC(=O)C(C)(C)C)=C(/C=C\c3scnc3C)CS[C@H]12)c1csc(N)n1` [cefditoren pivoxil], the TEAD-luciferase reporter activity (compound concentration: 2 uM) is inactive: -2.5.
Regarding `[I][Zn][I]`, the TEAD-luciferase reporter activity is, setting by setting: (compound concentration: 200 nM) inactive: 0.852; (compound concentration: 2 uM) inactive: -1.44; (compound concentration: 10 uM) inactive: 3.22.
The corresponding values for `Nc1cc2[nH]cnc2c(=O)[nH]1` [3-Deazaguanine] are inactive: -0.41, inactive: -1.38 and inactive: -0.774.
For the compound `Nc1ncnc2c1c(-c1cccc(OCc3ccccc3)c1)cn2[C@H]1C[C@@H](CN2CCC2)C1`, the TEAD-luciferase reporter activity reads like this: (compound concentration: 200 nM) inactive: 0.607; (compound concentration: 2 uM) inactive: -1.55; (compound concentration: 10 uM) inactive: -3.16.
The corresponding values for `Nc1cc(Cl)c(N=C2NCCN2)c(Cl)c1` [Pharmaprojects No. 1758] are inactive: 1.2, inactive: 0.894 and inactive: 4.
For the compound `COc1ccc(OCC(O)CNC(C)C)cc1` (stereo unspecified), the TEAD-luciferase reporter activity is, setting by setting: (compound concentration: 200 nM) inactive: -0.875; (compound concentration: 2 uM) inactive: 0.936; (compound concentration: 10 uM) inactive: 1.56.
The corresponding values for `CCCCCCCCCC(=O)N[C@@H](Cc1c[nH]c2ccccc12)C(=O)N[C@H](CC(N)=O)C(=O)N[C@@H](CC(=O)O)C(=O)N[C@@H]1C(=O)NCC(=O)N[C@@H](CCCN)C(=O)N[C@@H](CC(=O)O)C(=O)N[C@H](C)C(=O)N[C@@H](CC(=O)O)C(=O)NCC(=O)N[C@H](CO)C(=O)N[C@@H]([C@@H](C)CC(=O)O)C(=O)N[C@@H](CC(=O)c2ccccc2N)C(=O)O[C@@H]1C` [Daptomycin] are inactive: -0.554, inactive: -2.84 and inactive: -0.312.
For the compound `Cc1ccc(Cn2c(NC3CCNCC3)nc3cccnc32)o1`, the TEAD-luciferase reporter activity by setting is: (compound concentration: 200 nM) inactive: -0.0943; (compound concentration: 2 uM) inactive: 0.925; (compound concentration: 10 uM) inactive: -0.351.
With `CC(C(=O)O)c1ccc2c(c1)oc1ccc(Cl)cc12` (stereo unspecified), the TEAD-luciferase reporter activity reads like this: (compound concentration: 200 nM) inactive: -0.435; (compound concentration: 2 uM) inactive: -0.602; (compound concentration: 10 uM) inactive: 1.01.
Regarding `CN(C)CCN1CCN(c2cccc(Cl)c2)C1=O`, the TEAD-luciferase reporter activity runs as follows: (compound concentration: 200 nM) inactive: 3.52; (compound concentration: 2 uM) inactive: 3.25; (compound concentration: 10 uM) inactive: 0.641.
In the case of `OCC1COC(CI)O1` (stereo unspecified) [Domiodol], the TEAD-luciferase reporter activity (compound concentration: 200 nM) was inactive: 0.0895, the TEAD-luciferase reporter activity (compound concentration: 2 uM) was inactive: 1.08 and the TEAD-luciferase reporter activity (compound concentration: 10 uM) is inactive: 3.15.
The corresponding values for `CCCCCCCC/C=C\CCCCCCC(O)C(=O)O` (stereo unspecified) [Minerval] are inactive: -1.85, inactive: 0.143 and inactive: 0.135.
Consider `CN(C)C(=O)NC1(c2ccccc2)CCN(CCC[C@]2(c3ccc(Cl)c(Cl)c3)CCCN(C(=O)c3ccccc3)C2)CC1`, for which the TEAD-luciferase reporter activity was inactive: -1.22 (compound concentration: 200 nM), inactive: 0.802 (compound concentration: 2 uM) and inactive: 0.781 (compound concentration: 10 uM).
Regarding `Cc1cc(C(N)=O)ccc1-n1c(CCC(=O)O)ccc1-c1ccc(-n2ccnc2)cc1`, the TEAD-luciferase reporter activity is, setting by setting: (compound concentration: 200 nM) inactive: 0.127; (compound concentration: 2 uM) inactive: 0.368; (compound concentration: 10 uM) inactive: -1.55.
The corresponding values for `O=C(Nc1nc2cccc(-c3ccc(CN4CCS(=O)(=O)CC4)cc3)n2n1)C1CC1` [Filgotinib] are inactive: -2.25, inactive: 1.14 and inactive: -0.311.
